Structures can show the parent of a compound that is named as a salt. This is one part of the list. Baselines shift from plate to plate; read single values as rough.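 Wild-type or misfolding-prone missense mutant B-domain-deleted factor VIII, fused to Gaussia luciferase, is stably expressed in HEK293 lines. Each score is (mean triplicate-well luminescence minus DMSO mean) divided by DMSO standard deviation. Hits score at least 2; lower scores could stem from decreased secretion or poorer cell viability.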
Legend:
HEK293 WT BDD-FVIII-Gluc = test: secreted FVIII-Gluc luciferase Z-score vs DMSO control; higher = more FVIII-Gluc secretion; conditions: 5 µM; 24 h
[1] = system: HEK293 p.N1941S BDD-FVIII-Gluc; test: as above; conditions: 5 µM; 24 h

| Compound | secreted FVIII-Gluc luciferase Z-score (HEK293 WT BDD-FVIII-Gluc) | secreted FVIII-Gluc luciferase Z-score [1] |
| --- | --- | --- |
| CCCN(CCC)S(=O)(=O)c1ccc(C(=O)O)cc1 [Probenecid (Benemid)] | inactive: -0.0821 | inactive: -1.9 |
| Nc1ncnc2c1ncn2[C@@H]1O[C@H](CO)[C@@H](O)[C@H]1O [Adenosine (Adenocard)] | inactive: -2.16 | inactive: -0.417 |
| Cc1nnc(C(C)C)n1C1C[C@H]2CC[C@@H](C1)N2CC[C@H](NC(=O)C1CCC(F)(F)CC1)c1ccccc1 (stereo in doubt) [Maraviroc] | inactive: -1.84 | inactive: 1.95 |
| Clc1ccc(C(c2ccccc2Cl)C(Cl)Cl)cc1 (stereo not drawn) [Mitotane (Lysodren)] | inactive: -5.4 | inactive: -0.882 |
| CCCCCCCCOc1ccccc1C(=O)Nc1ccc(C(=O)OCC[N+](C)(CC)CC)cc1 [Otilonium Bromide] | inactive: -0.301 | inactive: 0.0858 |
| COC(=O)C1=C(C#N)NC(C)=C(C(=O)OC(C)C)C1c1cccc([N+](=O)[O-])c1 (stereo not drawn) [Nilvadipine (ARC029)] | inactive: -1.34 | inactive: -0.58 |
| CC(=O)NS(=O)(=O)c1ccc(NC(=O)c2ccccc2C(=O)O)cc1 [Phthalylsulfacetamide] | inactive: -0.664 | active: 2.39 |
| CC1(C)[C@@H](OC(=O)CCC(=O)O)CC[C@]2(C)[C@H]3C(=O)C=C4[C@@H]5C[C@@](C)(C(=O)O)CC[C@]5(C)CC[C@@]4(C)[C@]3(C)CC[C@@H]12 [Carbenoxolone Sodium] | inactive: 0.0331 | inactive: 1.07 |
| Nc1nc(F)nc2c1ncn2[C@@H]1O[C@H](COP(=O)(O)O)[C@@H](O)[C@@H]1O [Fludarabine Phosphate (Fludara)] | inactive: 0.648 | inactive: 0.498 |
| COc1ccc(-c2nc3cc(C4=NNC(=O)CC4C)ccc3[nH]2)cc1 (stereo not drawn) [Pimobendan (Vetmedin)] | inactive: 0.0806 | inactive: -4 |
| CN(C)CCCN1c2ccccc2CCc2ccccc21 [Imipramine HCl] | inactive: -0.903 | inactive: -0.0789 |
| COC(=O)[C@H](Cc1ccccc1)NC(=O)[C@@H](N)CC(=O)O [Aspartame] | inactive: -0.104 | inactive: -1.16 |
| CN(C)[C@@H](CCOc1cccc2ccccc12)c1ccccc1 [Dapoxetine hydrochloride (Priligy)] | inactive: -4.68 | inactive: -3.09 |
| C[C@H](CCC(=O)O)[C@H]1CC[C@H]2[C@@H]3[C@@H](O)C[C@@H]4C[C@H](O)CC[C@]4(C)[C@H]3CC[C@]12C [Ursodiol (Actigal Urso)] | inactive: -1.87 | inactive: 0.532 |
| CC(CCc1ccc(O)cc1)NCC(O)c1ccc(O)cc1 (stereo not drawn) [Ractopamine HCl] | inactive: -1.94 | active: 2.02 |
| CN(C)CCCOc1nn(Cc2ccccc2)c2ccccc12 [Benzydamine Hydrochloride] | inactive: 1.54 | inactive: 0.0485 |
| CN(CCOc1ccc(CC2SC(=O)NC2=O)cc1)c1ccccn1 (stereo not drawn) [Rosiglitazone (Avandia)] | inactive: 0.525 | inactive: -0.184 |
| Cc1ccc(NC(=O)c2ccc(CN3CCN(C)CC3)cc2)cc1Nc1nccc(-c2cccnc2)n1 [Imatinib Mesylate] | inactive: -2.45 | inactive: -6.1 |
| CC(=O)OCC(=O)NCCCOc1cccc(CN2CCCCC2)c1 [Roxatidine acetate HCl] | inactive: 0.107 | inactive: -1.36 |
| C[C@]12CCC(=O)C=C1[C@@H]1C[C@@H]1[C@H]1[C@@H]3[C@@H]4C[C@@H]4[C@@]4(CCC(=O)O4)[C@@]3(C)CC[C@@H]12 [Drospirenone] | inactive: -6.55 | inactive: -0.537 |
| O=C(O)CCc1nc2ccccc2[nH]1 [Procodazole] | active: 2.97 | inactive: 1.58 |
| C[C@H](N[C@@H](CCc1ccccc1)C(=O)O)C(=O)N1CCC[C@H]1C(=O)O [Enalaprilat dihydrate] | inactive: 1.73 | inactive: -1.69 |
| C[C@H](N)[C@H](O)c1cccc(O)c1 [Metaraminol Bitartrate] | inactive: -0.491 | inactive: -0.615 |
| O=C1NC(=O)C(c2ccccc2)(c2ccccc2)N1 [Phenytoin (Lepitoin)] | inactive: -1.73 | inactive: -0.908 |
| Oc1c(Br)cc(Br)c2cccnc12 [Broxyquinoline] | inactive: 1.31 | inactive: -0.279 |

Reformatted with tabs: part of the list above.
Compound	secreted FVIII-Gluc luciferase Z-score (HEK293 WT BDD-FVIII-Gluc)	secreted FVIII-Gluc luciferase Z-score [1]
CCCN(CCC)S(=O)(=O)c1ccc(C(=O)O)cc1 [Probenecid (Benemid)]	inactive: -0.0821	inactive: -1.9
Nc1ncnc2c1ncn2[C@@H]1O[C@H](CO)[C@@H](O)[C@H]1O [Adenosine (Adenocard)]	inactive: -2.16	inactive: -0.417

The results go on.

| Compound | secreted FVIII-Gluc luciferase Z-score (HEK293 WT BDD-FVIII-Gluc) | secreted FVIII-Gluc luciferase Z-score [1] |
| --- | --- | --- |
| COC(=O)C1=CO[C@@H](O)[C@@H]2C(CO)=CC[C@H]12 [Genipin] | inactive: -2.03 | inactive: -0.549 |
| Clc1ccc(C(Cn2ccnc2)OCc2c(Cl)cccc2Cl)c(Cl)c1 (stereo not drawn) [Isoconazole nitrate (Travogen)] | inactive: -4.93 | inactive: -0.714 |
| Cc1cccc(N(C)C(=S)Oc2ccc3ccccc3c2)c1 [Tolnaftate] | inactive: -2.17 | inactive: -1.85 |
| COC(=O)[C@H](c1ccccc1Cl)N1CCc2sccc2C1 [Clopidogrel (Plavix)] | inactive: -0.763 | inactive: -0.531 |
| O=C(O)c1ccccc1 [Benzoic acid] | inactive: -0.242 | inactive: 0.666 |
| CCc1nc(N)nc(N)c1-c1ccc(Cl)cc1 [Pyrimethamine] | inactive: -2.58 | inactive: -2.15 |
| CC(C)NCC(O)COc1cccc2ccccc12 (stereo not drawn) [Propranolol HCl] | inactive: -1.84 | inactive: -1.24 |
| CCC[C@@H]1C[C@@H](C(=O)N[C@@H]([C@H]2O[C@H](SC)[C@H](O)[C@@H](O)[C@H]2O)[C@@H](C)O)N(C)C1 [Lincomycin hydrochloride (Lincocin)] | inactive: -0.75 | inactive: -0.969 |
| CCCCOc1ccc(OCCCN2CCOCC2)cc1 [Pramoxine HCl] | inactive: 0.668 | inactive: 1.34 |
| CC[C@H]1OC(=O)[C@H](C)[C@@H](O[C@H]2C[C@@](C)(OC)[C@@H](O)[C@H](C)O2)[C@H](C)[C@@H](O[C@@H]2O[C@H](C)C[C@H](N(C)C)[C@H]2O)[C@](C)(O)C[C@@H](C)[C@@H]2N[C@@H](COCCOC)O[C@H]([C@H]2C)[C@]1(C)O [Dirithromycin] | inactive: 0.746 | inactive: -0.453 |
| CC[C@H](C)C[C@H](C)CCCCCCCCC(=O)N[C@H]1C[C@@H](O)[C@@H](NCCN)NC(=O)[C@@H]2[C@@H](O)CCN2C(=O)[C@H]([C@H](O)CCN)NC(=O)[C@H]([C@H](O)[C@@H](O)c2ccc(O)cc2)NC(=O)[C@@H]2C[C@@H](O)CN2C(=O)[C@H]([C@@H](C)O)NC1=O [Caspofungin acetate] | inactive: -0.353 | inactive: -0.329 |
| CCN1CCN(C(=O)N[C@@H](C(=O)N[C@@H]2C(=O)N3[C@@H]2SC(C)(C)[C@@H]3C(=O)O)c2ccccc2)C(=O)C1=O [Piperacillin Sodium] | inactive: -0.785 | inactive: -0.107 |
| CN(C)CCCN1c2ccccc2Sc2ccc(C(F)(F)F)cc21 [Triflupromazine HCl] | inactive: -1.36 | inactive: -0.0724 |
| CCCSc1nc(N[C@@H]2C[C@H]2c2ccc(F)c(F)c2)c2nnn([C@@H]3C[C@H](OCCO)[C@@H](O)[C@H]3O)c2n1 [Ticagrelor] | inactive: 0.175 | inactive: 0.0935 |
| CCOC(=O)C1=C(COCCN)NC(C)=C(C(=O)OC)C1c1ccccc1Cl (stereo not drawn) [Amlodipine besylate (Norvasc)] | inactive: -2.39 | inactive: -1.2 |
| CC[C@H]1OC(=O)[C@H](C)[C@@H](O[C@H]2C[C@@](C)(OC)[C@@H](O)[C@H](C)O2)[C@H](C)[C@@H](O[C@@H]2O[C@H](C)C[C@H](N(C)C)[C@H]2O)[C@](C)(O)C[C@@H](C)C(=O)[C@H](C)[C@@H](O)[C@]1(C)O [Erythromycin (E-Mycin)] | inactive: -2.79 | inactive: -1.05 |
| CCCCCCOC(=O)NC(=N)c1ccc(NCc2nc3cc(C(=O)N(CCC(=O)OCC)c4ccccn4)ccc3n2C)cc1 [BIBR-1048 (Dabigatran)] | inactive: -0.488 | inactive: -1.13 |
| CC(=O)[C@H]1CC[C@H]2[C@@H]3CCC4=CC(=O)CC[C@]4(C)[C@H]3CC[C@]12C [Progesterone (Prometrium)] | inactive: -2.5 | inactive: -0.169 |
| CCOC(=O)[C@H](CCc1ccccc1)N[C@@H](C)C(=O)N1CCC[C@H]1C(=O)O [Enalapril maleate (Vasotec)] | inactive: -2.65 | inactive: 0.111 |
| CSc1ccc2c(c1)N(CCC1CCCCN1C)c1ccccc1S2 (stereo not drawn) [Thioridazine HCl] | inactive: -3.77 | inactive: -1.69 |
| COC(=O)N[C@H](C(=O)N[C@@H](Cc1ccccc1)[C@@H](O)CN(Cc1ccc(-c2ccccn2)cc1)NC(=O)[C@@H](NC(=O)OC)C(C)(C)C)C(C)(C)C [Atazanavir sulfate] | inactive: -3.79 | inactive: -1.7 |
| Cc1nnc(NS(=O)(=O)c2ccc(N)cc2)s1 [Sulfamethizole (Proklar)] | inactive: -2.18 | inactive: -3.25 |
| COc1ccc(CC(C)NCC(O)c2ccc(O)c(NC=O)c2)cc1 (stereo not drawn) [Formoterol hemifumarate] | inactive: -1.3 | active: 2.04 |
| O=C(NCCN1CCOCC1)c1ccc(Cl)cc1 [Moclobemide] | inactive: 0.301 | inactive: -1.39 |
